The target in this assay is T1, GST-fused full-length WTAP (Wilms' tumor 1-associating protein) (mouse) (UniProt Q9ER69).
T1 sequence: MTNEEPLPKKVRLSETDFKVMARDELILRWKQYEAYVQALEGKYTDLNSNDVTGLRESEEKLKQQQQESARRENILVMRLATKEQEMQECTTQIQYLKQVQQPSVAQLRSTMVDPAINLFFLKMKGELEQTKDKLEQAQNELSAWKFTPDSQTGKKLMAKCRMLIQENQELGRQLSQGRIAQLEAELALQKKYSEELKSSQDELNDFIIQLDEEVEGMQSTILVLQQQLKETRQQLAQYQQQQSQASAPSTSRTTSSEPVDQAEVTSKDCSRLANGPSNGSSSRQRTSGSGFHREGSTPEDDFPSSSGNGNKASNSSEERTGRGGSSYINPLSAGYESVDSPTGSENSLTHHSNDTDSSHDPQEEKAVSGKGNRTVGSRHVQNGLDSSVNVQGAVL
As to the kind of experiment: pull-down; GST-WTAP (bait) immobilized on glutathione-Sepharose 4B, incubated with lysates of COS cells transfected with FLAG-METTL3 or FLAG-METTL14 (prey); 0.02% NP-40 in lysis, binding and washing buffers; eluted with 10 mg/ml reduced glutathione; Western blot with anti-METTL3, anti-METTL14 and anti-FLAG M2; only the target purified. For orientation: In western blotting, separated proteins are transferred to a membrane and probed.

The chains behind the UniProt entries cited, without tags or fusion partners.
UniProt Q8C3P7: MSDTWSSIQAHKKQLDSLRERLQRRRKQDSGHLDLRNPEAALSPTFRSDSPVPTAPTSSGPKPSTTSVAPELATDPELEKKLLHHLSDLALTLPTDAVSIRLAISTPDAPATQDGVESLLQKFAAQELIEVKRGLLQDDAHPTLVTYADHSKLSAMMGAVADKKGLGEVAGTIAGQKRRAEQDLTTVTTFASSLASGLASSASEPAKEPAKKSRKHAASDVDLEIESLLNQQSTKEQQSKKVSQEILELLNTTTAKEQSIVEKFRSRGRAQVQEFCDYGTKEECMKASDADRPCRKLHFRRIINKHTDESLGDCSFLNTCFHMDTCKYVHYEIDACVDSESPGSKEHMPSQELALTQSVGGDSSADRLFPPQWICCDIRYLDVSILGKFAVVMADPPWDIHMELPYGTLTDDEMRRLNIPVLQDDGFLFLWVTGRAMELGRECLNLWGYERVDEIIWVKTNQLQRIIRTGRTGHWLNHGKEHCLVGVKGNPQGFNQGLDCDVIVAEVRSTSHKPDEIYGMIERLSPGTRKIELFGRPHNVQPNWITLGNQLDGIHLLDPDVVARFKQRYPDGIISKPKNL

No constants are given. Whether binding was seen depends on the method and setting. Binding seen in cells or lysates may run through a third protein. Some binding calls cover weakened binding; strength is not graded here. Where a sequence is shown, tags or fusion partners need not be part of it.

With “FLAG-METTL3 (methyltransferase like 3) (from UniProt Q8C3P7 1-580)”, the binding entry is listed as “binds”.

B1: FLAG-METTL14 (methyltransferase like 14) (protein, UniProt Q3UIK4 1-456)
chain: MDSRLQEIRERQKLRRQLLAQQLGAESADSIGAVLNSKDEQREIAETRETCRASYDTSAPNSKRKCLDEGETDEDKVEEYKDELEMQQEEENLPYEEEIYKDSSTFLKGTQSLNPHNDYCQHFVDTGHRPQNFIRDVGLADRFEEYPKLRELIRLKDELIAKSNTPPMYLQADIEAFDIRELTPKFDVILLEPPLEEYYRETGITANEKCWTWDDIMKLEIDEIAAPRSFIFLWCGSGEGLDLGRVCLRKWGYRRCEDICWIKTNKNNPGKTKTLDPKAVFQRTKEHCLMGIKGTVKRSTDGDFIHANVDIDLIITEEPEIGNIEKPVEIFHIIEHFCLGRRRLHLFGRDSTIRPGWLTVGPTLTNSNYNAETYASYFSAPNSYLTGCTEEIERLRPKSPPPKSKSDRGGGAPRGGGRGGTSAGRGRERNRSNFRGERGGFRGGRGGTHRGGFTPR
In the case of B1, the binding entry was “binds”.

The record behind these values is publication PMC6066751.
